{"source": "PubChem BioAssay AID1458", "about": "(National Center for Advancing Translational Sciences (NCATS), 2008)", "note": "About 5,900 (2.8%) of roughly 210,000 compounds were called active. Inconclusive results (about 5%) are left out. The call rests on the fitted dose curve; in most records, active means well fitted activation curve with a large enough effect; inconclusive means small, poorly fitted or top-dose-only effect; inactive means no such curve, though single readings can be large or run the other way. Only a part is listed here, and it is no random draw. The source gives no active or inactive call for entries shown without one. Potency means the concentration at half of the fitted maximal effect.", "data": [{"experiment": "qHTS Assay for Enhancers of SMN2 Splice Variant Expression; further: nearly all actives have a fitted effect of over 55% in size; on activity change, positive = activation: % of control where 0% means no effect", "conditions": "HEK293 SMN2-luciferase splicing reporter, luminescence, 30-36 h; activity change, positive = activation: at 46.1 µM (top of the series) unless noted", "description": "NIH Chemical Genomics Center [NCGC] NIH Molecular Libraries Probe Production centers Network [MLPCN] MLPCN Grant: R03 MH084179-01 Assay Submitter (PI): Elliot Androphy NCGC Assay Overview: Spinal muscular atrophy (SMA) is caused by insufficient levels of the survival motor neuron protein SMN. The SMN locus on chromosome 5q13 contains two inverted copies of SMN called SMN1 and SMN2 which are 99% identical at the amino acid level. SMN1 is a fully functional protein and SMN2 skips exon 7 90% of the time. Skipping of exon 7 produces non-functional protein product. 10% of the SMN2 protein includes exon 7 and is fully functional. In the SMA disease state, mutations in the SMN1 locus are the cause of the disease state. Because only 10% of SMN2 is of the fully functional form, it is not sufficient to overcome the deficiency produced by the loss of the SMN1 product. A therapy that either increase the amount of SMN2 product made or to increase the inclusion of exon 7 has been proposed for the treatment of SMA. We have designed an assay to identify small molecules that can increase the amount of functional SMN2 product by appending a luciferase reporter gene after the native SMN2 gene, such that inclusion of exon 7 in the expressed product places the luciferase sequence in frame, thus generating functional luciferase enzyme.\nNCGC Assay Protocol Summary: This screen utilizes a luciferase reporter gene assay, combining the promoter and splicing based cassettes in tandem with the major portion of the native SMN2 cDNA, and then transfected into HEK293 cells. Compounds that increase luciferase signal presumably enhance expression of the functional SMN2 splice variant. Passaging media contained DMEM w/ glutamax (+phenol red) 10% FCS, 1x pen/strep, 200 ug/ml hygro, 1x sodium pyruvate. Assay media contained DMEM w/ glutamax (-phenol red) 10% FCS, 1x pen strep, 1x pyruvate Sequence, Parameter, Value, Description (1) Cells, […], 2000 cells/well, 1536 TC treated White solid bottom plate (2) Time, 10-12 hours, 37C 5% CO2 (3) Compound, 23 nl, MLSMR Library (4) Control Compound, 23 nL, Sodium butyrate st 4.5mM (final) conc (5) Time, 30-36 hours, 37C 5% CO2 (6) Reagent, 3 ul, One Glo (TM) from Promega (7) Time, 5-15 minutes, Room temp (8) Detector, Viewlux: luminescent read, 60 second integration, high speed 2x binning Keywords: Spinal muscular atrophy, SMA, SMN2, high throughput screening, MLSMR, MLPCN, NIH Roadmap, qHTS and NCGC", "values": [{"smiles": "CCc1ccc(C(=O)CCC2CCCCC2=O)cc1", "note": "(centres undefined)", "activity change, positive = activation": "inactive: -4.22%"}, {"smiles": "COc1cccc(CCc2ccccc2OCC[C@@H]2C[C@@H](O)CN2C)c1", "activity change, positive = activation": "inactive: -37.6%"}, {"smiles": "COc1ccc(-c2cc(C#N)nc(N3CCN(c4ccccc4)CC3)n2)cc1", "activity change, positive = activation": "inactive: -45.3%"}, {"smiles": "CC(=O)OC[C@H]1O[C@@H](n2ncc(=O)[nH]c2=O)[C@H](OC(C)=O)[C@@H]1OC(C)=O", "Potency": "active: 10 µM"}, {"smiles": "CCC1(CC)NC(=O)N(CC(=O)Nc2sc3c(c2C(N)=O)CCC3)C1=O", "activity change, positive = activation": "40.3%"}, {"smiles": "O=C(CSc1nc(-c2ccccc2)ns1)N1CCOCC1", "activity change, positive = activation": "61%"}, {"smiles": "O=C(Nc1ccccc1F)Nc1ccccc1F", "Potency": "active: 12.6 µM"}, {"smiles": "CCn1c(=O)cc(OCC(=O)NC2CCCCC2)c2ccccc21", "activity change, positive = activation": "46.3%"}, {"smiles": "O=C(NCC1CCCO1)C1CC(c2ccccc2Cl)=NO1", "note": "(centres undefined)", "activity change, positive = activation": "46%"}, {"smiles": "CC(=O)Nc1ccc(NC(=O)CSCc2cnn(-c3ccccc3)c2-n2cccc2)cc1", "activity change, positive = activation": "-33.3%"}, {"smiles": "CCCn1c(-c2ccc(OC)cc2)nc2c(=O)n(C)c(=O)[nH]c21", "activity change, positive = activation": "33.6%"}, {"smiles": "COc1ccc(Nc2nc(-c3ccc4c(c3)NC(=O)CO4)cs2)cc1", "activity change, positive = activation": "inactive: -63.9%"}, {"smiles": "CCOC(=O)COc1ccc(S(=O)(=O)NCCC2=CCCCC2)cc1", "activity change, positive = activation": "21.7%"}, {"smiles": "O=C1c2cccc3c([N+](=O)[O-])ccc(c23)C(=O)N1c1ccccn1", "activity change, positive = activation": "-68%"}, {"smiles": "Cc1ccc(CSC(Nc2ccc(F)cc2)=C(C#N)C#N)cc1", "activity change, positive = activation": "-80%"}, {"smiles": "COc1ccc(/C=C/C(=O)N2CCCc3ccccc32)cc1", "activity change, positive = activation": "-34.7%"}, {"smiles": "O=C1CC(c2ccccc2)CC(O)=C1C=Nc1ccccc1Cl", "note": "(centres undefined)", "activity change, positive = activation": "-17.8%"}, {"smiles": "O=C(Nc1cccnc1)Nc1ccc(F)c(Cl)c1", "activity change, positive = activation": "32.2%"}, {"smiles": "Nc1ccc(C(=O)Nc2nc3ccccc3s2)cc1", "Potency": "active: 1.58 µM"}, {"smiles": "O=C(CCN1C(=O)C2C3C=CC(C3)C2C1=O)N1CCN(c2ccc(F)cc2)CC1", "note": "(centres undefined)", "activity change, positive = activation": "30.5%"}, {"smiles": "Cc1ccccc1CSc1ncc(Cl)c(C(=O)NCc2ccccc2)n1", "activity change, positive = activation": "inactive: -31.5%"}, {"smiles": "Cn1c(NNC(=O)C(c2ccccc2)c2ccccc2)cc(=O)n(C)c1=O", "activity change, positive = activation": "inactive: -45.7%"}, {"smiles": "Clc1ccc(Cn2c(CN3CCCC3)nc3ccccc32)cc1", "activity change, positive = activation": "-47.9%"}, {"smiles": "Cc1ccc(-c2nc(-c3ccccn3)no2)cc1", "activity change, positive = activation": "-81.2%"}, {"smiles": "Cc1ccc(NC(=O)Cn2c(O)c(N=NC(=O)c3cc4ccccc4cc3O)c3ccccc32)cc1", "activity change, positive = activation": "inactive: -43.7%"}, {"smiles": "COC(=O)C1=C(C(=O)OC)[C@@H]2N(C)c3ccc(OC)cc3[C@@]23C[C@@H](C(=O)OC)N(C(=O)C2CCC2)C3=N1", "activity change, positive = activation": "30.4% [at 9.22 µM]"}, {"smiles": "NC(=O)C1(N2CCCCC2)CCN(c2nc(-c3ccc(Br)cc3)cs2)CC1", "activity change, positive = activation": "inactive: -42.4%"}, {"smiles": "CCNS(=O)(=O)c1c(C)cc(N2CCCC2=O)cc1C", "activity change, positive = activation": "27.7%"}, {"smiles": "COc1cccc(Nc2ncnc3ccccc23)c1", "Potency": "active: 14.1 µM"}]}]}
